Results: PMC12652319
Results are given in words; binding and its absence hold for the method and conditions named. Binding seen in cells or lysates may run through a third protein. Some entries that bind do so weakly or less than the wild type. Where a sequence is shown, tags or fusion partners need not be part of it.

Experiments:
[1] = molecular target: T1, Flag-Halo-tagged CTCF WT (dox-inducible rescue) (UniProt Q61164); assay: co-IP; same anti-Flag immunoprecipitation from the chromatin fraction; pooled Flag peptide elution separated by SDS-PAGE, Western blot for CTCF and Rad21
T1 sequence: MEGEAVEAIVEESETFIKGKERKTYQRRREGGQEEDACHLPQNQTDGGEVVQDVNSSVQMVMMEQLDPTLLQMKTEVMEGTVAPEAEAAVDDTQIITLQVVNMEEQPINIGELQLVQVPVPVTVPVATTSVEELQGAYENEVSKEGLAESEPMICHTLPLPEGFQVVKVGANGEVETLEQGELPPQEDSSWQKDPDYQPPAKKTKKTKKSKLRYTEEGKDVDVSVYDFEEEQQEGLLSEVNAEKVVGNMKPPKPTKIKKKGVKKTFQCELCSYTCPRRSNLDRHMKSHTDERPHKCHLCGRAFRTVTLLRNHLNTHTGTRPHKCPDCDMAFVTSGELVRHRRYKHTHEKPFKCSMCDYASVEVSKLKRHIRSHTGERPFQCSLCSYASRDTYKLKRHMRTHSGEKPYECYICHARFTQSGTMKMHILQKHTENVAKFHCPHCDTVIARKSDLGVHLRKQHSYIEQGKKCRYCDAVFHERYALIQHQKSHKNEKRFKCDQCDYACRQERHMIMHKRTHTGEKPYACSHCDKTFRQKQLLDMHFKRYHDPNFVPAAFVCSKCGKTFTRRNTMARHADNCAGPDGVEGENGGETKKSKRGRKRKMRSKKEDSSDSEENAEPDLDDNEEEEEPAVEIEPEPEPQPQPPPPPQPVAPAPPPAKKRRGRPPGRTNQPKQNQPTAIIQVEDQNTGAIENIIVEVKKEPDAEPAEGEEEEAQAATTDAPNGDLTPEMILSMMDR

[2] = molecular target: T2, Flag-Halo-tagged CTCF ΔZF1 (dox-inducible rescue) (UniProt Q61164); assay: as above
T2 sequence: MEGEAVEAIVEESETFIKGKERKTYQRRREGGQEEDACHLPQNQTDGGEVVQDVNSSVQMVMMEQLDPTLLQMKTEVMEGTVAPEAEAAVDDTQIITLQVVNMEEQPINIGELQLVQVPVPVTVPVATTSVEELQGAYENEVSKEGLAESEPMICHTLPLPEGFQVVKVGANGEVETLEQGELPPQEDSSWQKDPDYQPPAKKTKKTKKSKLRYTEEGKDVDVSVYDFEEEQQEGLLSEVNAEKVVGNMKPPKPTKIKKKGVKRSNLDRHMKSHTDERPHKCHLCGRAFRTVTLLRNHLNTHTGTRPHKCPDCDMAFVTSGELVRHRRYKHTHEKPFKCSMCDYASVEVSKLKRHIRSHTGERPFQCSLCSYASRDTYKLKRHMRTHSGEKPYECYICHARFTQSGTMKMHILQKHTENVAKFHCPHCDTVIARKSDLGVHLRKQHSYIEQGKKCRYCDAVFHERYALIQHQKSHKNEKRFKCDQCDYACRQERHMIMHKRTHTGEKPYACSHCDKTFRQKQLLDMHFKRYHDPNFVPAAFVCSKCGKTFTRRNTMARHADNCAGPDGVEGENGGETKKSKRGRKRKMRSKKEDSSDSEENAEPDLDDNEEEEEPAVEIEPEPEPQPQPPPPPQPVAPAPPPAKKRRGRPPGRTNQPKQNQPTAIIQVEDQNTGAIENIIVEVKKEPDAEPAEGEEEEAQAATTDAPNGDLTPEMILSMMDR

- binding [1]: binds
- binding [2]: binds
B1: Rad21 (protein, UniProt Q61550 1-635)
chain: MFYAHFVLSKRGPLAKIWLAAHWDKKLTKAHVFECNLESSVESIISPKVKMALRTSGHLLLGVVRIYHRKAKYLLADCNEAFIKIKMAFRPGVVDLPEENREAAYNAITLPEEFHDFDQPLPDLDDIDVAQQFSLNQSRVEEITMREEVGNISILQENDFGDFGMDDREIMREGSAFEDDDMLVSTSASNLLLEPEQSTSNLNEKMNHLEYEDQYKDDNFGEGNDGGILDDKLISNNDGGIFDDPPALSEAGVMLPEQPAHDDMDEDDNGSLGGPDSPDSVDPVEPMPTMTDQTTLVPNEEEAFALEPIDITVKETKAKRKRKLIVDSVKELDSKTIRAQLSDYSDIVTTLDLAPPTKKLMMWKETGGVEKLFFLPAQPLWNNRLLKLFTRCLTPLVPEDLRKRRKGGEADNLDEFLKEFENPEVPREEQQPQQQQPQPQRDVIDEPIIEEPSRLQDSVMEASRTTIEESAMPPPPPQGVKRKAGQIDPEPSIPPQQVEQMEIPPVELPPEEPPNICQLIPELELLPEKEKEKEKEKEEEEEEEDEDASGGDQDQEERRWNKRTQQMLHGLQRALAKTGAESISLLELCRNTNRKQAAAKFYSFLVLKKQQAIELTQEEPYSDIIATPGPRFHII
